Laboratory results: article PMC10344873 (2023)
These are yes or no findings as the source states them, for the method shown. In cells and extracts the contact can be indirect. Some results given as binding are weak or reduced against the parent protein; the word gives no strength. Where a sequence is shown, tags or fusion partners need not be part of it.

Sequences of proteins named here, by UniProt entry; tags and fusion partners are left off.
UniProt Q64261: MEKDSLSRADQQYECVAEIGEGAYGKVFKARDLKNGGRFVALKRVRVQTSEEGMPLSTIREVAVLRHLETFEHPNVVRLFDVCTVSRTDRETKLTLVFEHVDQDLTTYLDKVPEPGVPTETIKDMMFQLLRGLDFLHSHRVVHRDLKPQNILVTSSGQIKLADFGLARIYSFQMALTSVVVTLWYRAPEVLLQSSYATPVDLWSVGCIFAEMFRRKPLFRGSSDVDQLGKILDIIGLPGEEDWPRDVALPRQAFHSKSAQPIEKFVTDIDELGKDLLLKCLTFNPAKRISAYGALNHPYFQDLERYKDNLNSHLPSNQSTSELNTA

Biological target: 3×Flag-tagged wild type CDK6 (mouse (by the printed Gene ID 12571; not stated in words for CDK6)) (UniProt Q64261)
Test: co-IP; LUMIER assay: p16-NLuc and Flag-tagged CDK6 co-expressed in HEK293 cells; lysate (150 mM NaCl, 10 mM sodium phosphate pH 7.2, 0.05% Triton-X100) immunoprecipitated with anti-Flag antibody and protein G-Sepharose, 3 h at 4 °C; NLuc bioluminescence read on-bead, normalised on input, relative to wild type; n = 6

- binding: binds
B1: wild type p16-NLuc (mouse p16 tagged with NanoLuc luciferase) (protein, UniProt P51480 1-168)
chain: MESAADRLARAAAQGRVHDVRALLEAGVSPNAPNSFGRTPIQVMMMGNVHVAALLLNYGADSNCEDPTTFSRPVHDAAREGFLDTLVVLHGSGARLDVRDAWGRLPLDLAQERGHQDIVRYLRSAGCSLCSAGWSLCTAGNVAQTDGHSFSSSTPRALELRGQSQEQS
